Data reported in paper PMC7947288.
Results are given in words; binding and its absence hold for the method and conditions named. Binding seen in cells or lysates may run through a third protein. Some entries that bind do so weakly or less than the wild type. For some of these results: Tags and fused reporters may be left off the sequences shown.

Protein sequences, listed by entry. Tags and fused reporters are not part of them.
UniProt P11142: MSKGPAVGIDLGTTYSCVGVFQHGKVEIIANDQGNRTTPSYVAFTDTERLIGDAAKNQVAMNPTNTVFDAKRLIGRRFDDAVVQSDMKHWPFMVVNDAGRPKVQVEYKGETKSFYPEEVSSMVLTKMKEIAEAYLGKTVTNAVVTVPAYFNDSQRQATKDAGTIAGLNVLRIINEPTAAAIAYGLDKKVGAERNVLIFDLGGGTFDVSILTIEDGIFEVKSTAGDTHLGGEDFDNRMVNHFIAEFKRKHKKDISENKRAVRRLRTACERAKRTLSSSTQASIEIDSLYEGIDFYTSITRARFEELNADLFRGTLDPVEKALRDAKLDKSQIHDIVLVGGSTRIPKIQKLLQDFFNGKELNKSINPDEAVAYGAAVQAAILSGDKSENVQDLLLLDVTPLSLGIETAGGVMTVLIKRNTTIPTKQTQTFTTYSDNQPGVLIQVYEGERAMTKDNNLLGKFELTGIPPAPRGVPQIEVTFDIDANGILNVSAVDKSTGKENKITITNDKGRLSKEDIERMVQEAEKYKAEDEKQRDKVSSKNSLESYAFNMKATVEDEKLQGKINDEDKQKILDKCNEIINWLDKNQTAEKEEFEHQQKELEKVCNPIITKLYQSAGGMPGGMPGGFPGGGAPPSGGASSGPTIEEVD

How the values were obtained:
Assay in all cases: co-IP; HEK293T co-transfected with Flag-NSD2 isoform and Myc-RPL10 or Myc-HSPA8, lysed after 48 h (20 mM Tris pH 7.5, 150 mM NaCl, 1% Triton X-100); whole-cell lysates precipitated with anti-Flag M2 agarose in the presence or absence of RNase A, ethidium bromide; immunoblot
[1] = target: Flag-tagged NSD2 Isoform 1 (human) (UniProt O96028)
[2] = target: T1, Flag-tagged NSD2 Isoform 7 (human) (UniProt O96028)
T1 sequence: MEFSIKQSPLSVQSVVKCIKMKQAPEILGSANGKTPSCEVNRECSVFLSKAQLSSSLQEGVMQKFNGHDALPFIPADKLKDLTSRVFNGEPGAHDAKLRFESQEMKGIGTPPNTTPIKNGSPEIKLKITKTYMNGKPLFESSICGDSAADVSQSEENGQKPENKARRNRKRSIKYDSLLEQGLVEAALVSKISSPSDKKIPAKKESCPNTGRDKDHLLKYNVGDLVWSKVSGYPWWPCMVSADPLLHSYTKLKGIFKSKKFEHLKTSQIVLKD

[3] = target: T2, Flag-tagged NSD2 Isoform 3 (human) (UniProt O96028)
T2 sequence: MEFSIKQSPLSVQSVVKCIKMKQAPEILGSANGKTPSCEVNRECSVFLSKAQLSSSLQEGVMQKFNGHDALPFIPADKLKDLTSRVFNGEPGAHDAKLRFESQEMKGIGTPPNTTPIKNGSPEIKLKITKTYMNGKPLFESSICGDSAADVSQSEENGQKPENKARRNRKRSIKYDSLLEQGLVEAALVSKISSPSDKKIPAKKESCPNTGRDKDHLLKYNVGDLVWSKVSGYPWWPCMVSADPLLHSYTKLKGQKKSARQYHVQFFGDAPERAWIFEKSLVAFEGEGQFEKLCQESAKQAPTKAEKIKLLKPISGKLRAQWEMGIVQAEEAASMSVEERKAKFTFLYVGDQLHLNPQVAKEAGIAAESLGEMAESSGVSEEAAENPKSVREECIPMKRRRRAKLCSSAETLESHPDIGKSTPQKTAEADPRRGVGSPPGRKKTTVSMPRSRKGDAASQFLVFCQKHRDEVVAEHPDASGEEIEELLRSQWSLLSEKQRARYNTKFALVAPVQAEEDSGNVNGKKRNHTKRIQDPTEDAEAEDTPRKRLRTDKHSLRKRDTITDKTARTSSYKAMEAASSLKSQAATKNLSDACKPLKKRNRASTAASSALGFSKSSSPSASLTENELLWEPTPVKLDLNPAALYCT

[4] = target: T3, Flag-tagged NSD2 Isoform 5 (human) (UniProt O96028)
T3 sequence: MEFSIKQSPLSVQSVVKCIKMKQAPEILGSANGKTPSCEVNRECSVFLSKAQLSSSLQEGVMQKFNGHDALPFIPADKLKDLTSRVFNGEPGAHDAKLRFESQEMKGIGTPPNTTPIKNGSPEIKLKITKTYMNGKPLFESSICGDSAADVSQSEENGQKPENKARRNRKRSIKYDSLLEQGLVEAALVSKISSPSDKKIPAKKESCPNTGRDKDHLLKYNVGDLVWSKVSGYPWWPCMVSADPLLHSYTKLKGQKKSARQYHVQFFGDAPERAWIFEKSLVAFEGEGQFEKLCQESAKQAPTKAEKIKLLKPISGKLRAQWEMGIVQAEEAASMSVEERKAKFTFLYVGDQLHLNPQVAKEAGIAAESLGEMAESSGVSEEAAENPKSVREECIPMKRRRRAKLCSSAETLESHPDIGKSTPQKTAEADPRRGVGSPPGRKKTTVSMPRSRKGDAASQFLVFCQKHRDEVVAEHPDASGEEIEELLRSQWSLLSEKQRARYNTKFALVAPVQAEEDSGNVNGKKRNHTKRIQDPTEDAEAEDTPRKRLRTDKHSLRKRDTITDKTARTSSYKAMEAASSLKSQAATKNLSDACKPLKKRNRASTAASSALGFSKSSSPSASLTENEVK

binding [1]: binds
binding [2]: binds
binding [3]: binds
binding [4]: binds
Substance: Myc-tagged HSPA8 (from UniProt P11142 1-646)
